Experimental data taken from the supplement of paper PMC12067093, “Discovery and optimisation of a covalent ligand for TRIM25 and its application to targeted protein ubiquitination” (Chemical Science, 2025).
The list shows a part of the results.

Protein sequences, listed by entry. Tags and fused reporters are not part of them. Lines headed by an entry give the natural chain unless they say otherwise; changes in a name come on top.
UniProt Q9H6Y2: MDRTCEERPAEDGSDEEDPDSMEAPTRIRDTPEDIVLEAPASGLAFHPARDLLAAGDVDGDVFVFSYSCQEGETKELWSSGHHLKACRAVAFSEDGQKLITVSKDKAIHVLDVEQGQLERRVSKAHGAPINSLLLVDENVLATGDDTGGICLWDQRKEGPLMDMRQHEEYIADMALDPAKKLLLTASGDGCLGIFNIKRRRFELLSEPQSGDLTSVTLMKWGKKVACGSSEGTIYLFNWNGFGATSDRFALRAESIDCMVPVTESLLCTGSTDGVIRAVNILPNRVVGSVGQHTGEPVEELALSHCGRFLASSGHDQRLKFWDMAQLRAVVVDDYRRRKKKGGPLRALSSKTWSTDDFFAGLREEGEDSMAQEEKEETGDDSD
UniProt Q12768: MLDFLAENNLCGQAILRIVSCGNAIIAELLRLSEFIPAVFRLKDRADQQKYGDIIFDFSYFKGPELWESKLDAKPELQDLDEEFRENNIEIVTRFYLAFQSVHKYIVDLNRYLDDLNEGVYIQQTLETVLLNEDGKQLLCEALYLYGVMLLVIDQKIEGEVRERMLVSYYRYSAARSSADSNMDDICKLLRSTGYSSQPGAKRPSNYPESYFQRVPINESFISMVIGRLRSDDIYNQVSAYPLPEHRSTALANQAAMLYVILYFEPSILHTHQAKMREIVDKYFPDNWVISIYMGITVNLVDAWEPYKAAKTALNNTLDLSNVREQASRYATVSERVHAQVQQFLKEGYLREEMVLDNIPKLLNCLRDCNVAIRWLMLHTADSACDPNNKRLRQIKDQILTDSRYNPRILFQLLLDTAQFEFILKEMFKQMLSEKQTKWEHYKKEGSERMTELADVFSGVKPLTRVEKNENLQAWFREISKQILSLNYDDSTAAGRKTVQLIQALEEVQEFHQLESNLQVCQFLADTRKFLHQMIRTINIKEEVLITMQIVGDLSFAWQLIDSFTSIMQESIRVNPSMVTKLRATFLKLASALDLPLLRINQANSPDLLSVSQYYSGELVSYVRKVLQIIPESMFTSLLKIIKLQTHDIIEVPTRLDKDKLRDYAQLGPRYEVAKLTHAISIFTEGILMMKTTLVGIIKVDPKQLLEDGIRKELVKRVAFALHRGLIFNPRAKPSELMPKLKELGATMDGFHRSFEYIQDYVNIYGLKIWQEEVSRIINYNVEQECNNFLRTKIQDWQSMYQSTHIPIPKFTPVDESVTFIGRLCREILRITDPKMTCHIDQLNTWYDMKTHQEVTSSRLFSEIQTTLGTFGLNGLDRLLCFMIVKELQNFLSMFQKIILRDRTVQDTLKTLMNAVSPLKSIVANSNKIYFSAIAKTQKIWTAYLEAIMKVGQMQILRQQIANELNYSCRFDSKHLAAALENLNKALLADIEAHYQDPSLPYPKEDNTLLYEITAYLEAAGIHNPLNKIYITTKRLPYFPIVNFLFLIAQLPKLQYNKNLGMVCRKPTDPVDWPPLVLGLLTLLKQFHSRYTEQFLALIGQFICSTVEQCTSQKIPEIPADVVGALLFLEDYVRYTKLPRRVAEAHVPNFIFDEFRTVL
UniProt Q9HAD4: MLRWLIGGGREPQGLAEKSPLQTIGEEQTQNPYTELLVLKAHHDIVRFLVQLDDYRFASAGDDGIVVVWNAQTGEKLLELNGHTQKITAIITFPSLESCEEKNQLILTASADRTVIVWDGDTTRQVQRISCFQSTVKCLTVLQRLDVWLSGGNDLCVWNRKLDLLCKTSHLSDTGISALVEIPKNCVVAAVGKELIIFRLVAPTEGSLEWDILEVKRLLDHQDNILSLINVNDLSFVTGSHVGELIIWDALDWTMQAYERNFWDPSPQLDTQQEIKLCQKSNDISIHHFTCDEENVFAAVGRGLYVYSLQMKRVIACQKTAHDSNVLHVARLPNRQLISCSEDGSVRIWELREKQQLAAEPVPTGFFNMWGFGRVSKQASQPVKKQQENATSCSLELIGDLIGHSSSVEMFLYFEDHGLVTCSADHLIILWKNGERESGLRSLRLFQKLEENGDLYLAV
UniProt O43379: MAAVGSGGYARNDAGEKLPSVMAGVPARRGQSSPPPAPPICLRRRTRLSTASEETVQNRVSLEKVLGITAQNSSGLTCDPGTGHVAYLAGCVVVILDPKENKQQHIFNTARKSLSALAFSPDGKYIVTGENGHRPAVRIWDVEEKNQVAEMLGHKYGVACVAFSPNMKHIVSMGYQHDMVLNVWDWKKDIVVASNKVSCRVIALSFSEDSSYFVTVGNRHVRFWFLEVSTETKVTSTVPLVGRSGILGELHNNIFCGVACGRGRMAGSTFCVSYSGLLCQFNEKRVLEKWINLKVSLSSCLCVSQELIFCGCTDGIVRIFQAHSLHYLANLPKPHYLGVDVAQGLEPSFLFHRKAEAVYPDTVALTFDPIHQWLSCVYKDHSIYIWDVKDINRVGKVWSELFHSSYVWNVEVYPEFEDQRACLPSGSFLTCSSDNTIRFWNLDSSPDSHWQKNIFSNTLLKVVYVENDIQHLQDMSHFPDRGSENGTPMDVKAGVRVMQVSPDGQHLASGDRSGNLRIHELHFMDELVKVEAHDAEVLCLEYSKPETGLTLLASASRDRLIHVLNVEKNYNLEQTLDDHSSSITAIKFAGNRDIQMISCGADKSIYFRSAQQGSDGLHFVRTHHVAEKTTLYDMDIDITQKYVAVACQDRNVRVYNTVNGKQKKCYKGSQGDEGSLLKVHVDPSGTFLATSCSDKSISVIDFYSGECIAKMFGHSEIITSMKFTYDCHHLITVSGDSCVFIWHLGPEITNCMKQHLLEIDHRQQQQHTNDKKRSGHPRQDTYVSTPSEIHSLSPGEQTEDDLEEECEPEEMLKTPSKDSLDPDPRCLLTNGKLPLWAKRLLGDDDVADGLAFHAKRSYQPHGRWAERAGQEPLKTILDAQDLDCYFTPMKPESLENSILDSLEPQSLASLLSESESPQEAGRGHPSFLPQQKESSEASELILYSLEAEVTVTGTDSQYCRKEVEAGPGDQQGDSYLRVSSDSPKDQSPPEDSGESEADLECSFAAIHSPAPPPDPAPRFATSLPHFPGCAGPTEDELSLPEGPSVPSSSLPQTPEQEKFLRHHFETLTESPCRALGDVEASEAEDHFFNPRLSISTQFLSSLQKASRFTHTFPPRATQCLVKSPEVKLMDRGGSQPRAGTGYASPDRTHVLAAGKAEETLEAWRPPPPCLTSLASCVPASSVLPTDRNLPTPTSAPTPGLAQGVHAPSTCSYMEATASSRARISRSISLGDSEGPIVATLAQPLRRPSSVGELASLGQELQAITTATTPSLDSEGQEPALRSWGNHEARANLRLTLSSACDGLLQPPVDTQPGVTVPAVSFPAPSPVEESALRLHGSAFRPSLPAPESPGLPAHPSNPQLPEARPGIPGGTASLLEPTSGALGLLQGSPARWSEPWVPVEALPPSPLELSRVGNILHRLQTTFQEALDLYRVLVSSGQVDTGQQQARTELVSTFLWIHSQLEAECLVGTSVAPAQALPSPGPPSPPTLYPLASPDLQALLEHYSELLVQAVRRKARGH
UniProt Q562E7: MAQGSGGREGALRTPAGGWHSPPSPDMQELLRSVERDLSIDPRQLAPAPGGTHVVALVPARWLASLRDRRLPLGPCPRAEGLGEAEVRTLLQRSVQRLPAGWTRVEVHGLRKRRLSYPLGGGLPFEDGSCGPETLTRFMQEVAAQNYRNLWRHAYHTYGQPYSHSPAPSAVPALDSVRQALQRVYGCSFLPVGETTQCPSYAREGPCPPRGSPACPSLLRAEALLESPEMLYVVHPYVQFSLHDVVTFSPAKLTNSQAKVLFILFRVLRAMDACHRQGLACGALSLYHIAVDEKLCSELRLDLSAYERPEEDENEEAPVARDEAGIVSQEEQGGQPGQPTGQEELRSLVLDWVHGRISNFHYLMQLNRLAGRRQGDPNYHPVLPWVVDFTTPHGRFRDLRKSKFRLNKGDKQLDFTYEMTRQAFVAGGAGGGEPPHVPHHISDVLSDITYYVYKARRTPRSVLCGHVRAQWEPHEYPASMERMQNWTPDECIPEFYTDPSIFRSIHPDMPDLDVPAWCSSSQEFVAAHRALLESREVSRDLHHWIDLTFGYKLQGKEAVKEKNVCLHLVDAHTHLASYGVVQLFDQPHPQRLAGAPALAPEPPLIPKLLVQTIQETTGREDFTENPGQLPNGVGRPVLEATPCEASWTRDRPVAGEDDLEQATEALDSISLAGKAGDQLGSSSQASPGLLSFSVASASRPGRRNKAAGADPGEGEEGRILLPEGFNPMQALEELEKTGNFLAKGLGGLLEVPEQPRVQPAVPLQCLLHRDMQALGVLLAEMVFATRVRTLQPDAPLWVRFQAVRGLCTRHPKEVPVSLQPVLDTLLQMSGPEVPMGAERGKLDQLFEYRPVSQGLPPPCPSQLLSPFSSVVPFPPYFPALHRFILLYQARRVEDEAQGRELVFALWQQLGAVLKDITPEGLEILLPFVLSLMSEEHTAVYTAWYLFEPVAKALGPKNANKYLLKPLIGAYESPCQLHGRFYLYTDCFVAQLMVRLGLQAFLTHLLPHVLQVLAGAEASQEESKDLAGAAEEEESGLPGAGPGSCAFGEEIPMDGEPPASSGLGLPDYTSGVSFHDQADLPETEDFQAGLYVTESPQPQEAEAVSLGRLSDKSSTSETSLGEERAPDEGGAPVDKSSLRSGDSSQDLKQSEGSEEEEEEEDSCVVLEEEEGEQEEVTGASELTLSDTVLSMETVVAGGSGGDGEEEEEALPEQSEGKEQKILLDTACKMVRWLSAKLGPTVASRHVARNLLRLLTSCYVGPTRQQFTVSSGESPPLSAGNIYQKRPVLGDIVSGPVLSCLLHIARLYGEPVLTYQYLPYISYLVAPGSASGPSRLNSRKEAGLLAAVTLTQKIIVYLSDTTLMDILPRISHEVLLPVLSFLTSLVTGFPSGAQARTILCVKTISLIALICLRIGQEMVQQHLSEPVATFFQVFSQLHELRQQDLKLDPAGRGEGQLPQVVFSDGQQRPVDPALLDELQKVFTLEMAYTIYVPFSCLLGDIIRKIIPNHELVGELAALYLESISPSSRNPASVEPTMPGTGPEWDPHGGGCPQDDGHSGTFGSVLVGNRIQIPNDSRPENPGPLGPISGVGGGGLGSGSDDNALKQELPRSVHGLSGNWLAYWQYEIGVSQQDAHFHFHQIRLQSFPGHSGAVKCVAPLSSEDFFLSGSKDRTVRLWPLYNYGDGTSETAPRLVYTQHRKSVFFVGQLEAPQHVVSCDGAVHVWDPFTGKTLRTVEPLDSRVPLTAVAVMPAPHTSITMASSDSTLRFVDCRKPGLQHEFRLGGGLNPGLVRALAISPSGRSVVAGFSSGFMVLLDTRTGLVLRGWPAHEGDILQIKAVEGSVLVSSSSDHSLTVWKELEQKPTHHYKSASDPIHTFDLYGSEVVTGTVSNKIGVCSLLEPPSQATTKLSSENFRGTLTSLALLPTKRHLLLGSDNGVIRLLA
UniProt Q15061: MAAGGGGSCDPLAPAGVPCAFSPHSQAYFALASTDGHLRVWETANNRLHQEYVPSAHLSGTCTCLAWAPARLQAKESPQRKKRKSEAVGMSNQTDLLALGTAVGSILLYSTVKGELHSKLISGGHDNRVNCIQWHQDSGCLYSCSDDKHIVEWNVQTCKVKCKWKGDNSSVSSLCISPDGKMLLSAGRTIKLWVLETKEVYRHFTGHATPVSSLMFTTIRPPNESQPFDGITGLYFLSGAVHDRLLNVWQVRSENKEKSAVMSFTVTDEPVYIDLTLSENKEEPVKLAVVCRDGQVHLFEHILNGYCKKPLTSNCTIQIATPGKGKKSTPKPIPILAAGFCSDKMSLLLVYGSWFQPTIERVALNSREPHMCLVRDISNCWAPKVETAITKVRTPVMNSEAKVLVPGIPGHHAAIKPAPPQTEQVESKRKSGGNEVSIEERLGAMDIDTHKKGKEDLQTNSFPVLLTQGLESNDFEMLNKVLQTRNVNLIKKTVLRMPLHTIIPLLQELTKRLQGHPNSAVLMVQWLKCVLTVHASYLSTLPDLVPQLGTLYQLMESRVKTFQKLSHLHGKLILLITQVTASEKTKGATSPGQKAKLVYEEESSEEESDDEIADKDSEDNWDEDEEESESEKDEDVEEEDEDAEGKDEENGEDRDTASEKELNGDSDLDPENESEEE

These targets were tested with CC1Cc2ccccc2N1C(=O)C1CCCN(C1)C(=O)CCl (mixture of isomers) [TRIM25 ligand 11 (diastereomer mixture)] (assay: probe-labelled cysteine peptide fold change vs DMSO (competition) (log2 fold change); higher = less target engagement (more negative = stronger competition)). Settings: 50 µM; THP-1; incubation time: 4 h.
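Also: competitive chemoproteomic profiling in live THP-1 cells with an iodoacetamide desthiobiotin (IA-DTB) probe, comparing probe-labelled peptide intensities in compound-treated cells against DMSO-treated controls.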

Target | probe-labelled cysteine peptide fold change
WDR55_Q9H6Y2_191_LLLTASGDGCLGIFNIK (UniProt Q9H6Y2) | 0.0857
WASHC5_Q12768_385_WLMLHTADSACDPNNKR (UniProt Q12768) | -0.131
WDR41_Q9HAD4_186_NCVVAAVGK (UniProt Q9HAD4) | 0.0422
XAB2_Q9HCS7_98_CVTDPAYEDVNNCHER (UniProt Q9HCS7) | 0.341
WDR62_O43379_256_SGILGELHNNIFCGVACGR (UniProt O43379) | 0.0882
WDR47_O94967_367_SLMLENTECHSIYEESPER (UniProt O94967) | 0.126
WDR62_O43379_376_KAEAVYPDTVALTFDPIHQWLSCVYK (UniProt O43379) | 0.00351
WDR75_Q8IWA0_546_HLCFGR (UniProt Q8IWA0) | 0.227
WDR81_Q562E7_215_GSPACPSLLR (UniProt Q562E7) | -0.158
WDR81_Q562E7_464_SVLCGHVR (UniProt Q562E7) | 0.0569
WDR43_Q15061_372_EPHMCLVR (UniProt Q15061) | -0.0894
WDR44_Q5JSH3_147_CFPSDETCEKPVDETTK (UniProt Q5JSH3) | -0.125
WDR41_Q9HAD4_131_ISCFQSTVK (UniProt Q9HAD4) | 0.306
XPC_Q01831_790_KLDIDCVQAITGFDFHGGYSHPVTDGYIVCEEFK (UniProt Q01831) | 0.0383
WDR91_A4D1P6_246_LGDSELAMVCSQR (UniProt A4D1P6) | -0.273
WASHC5_Q12768_11_MLDFLAENNLCGQAILR (UniProt Q12768) | 0.038
